# Measurements: patent publication US20090325923A1, “NEW METHOD FOR THE TREATMENT OF INFLAMMATORY DISEASES” (TOPOTARGET SWITZERLAND SA, priority 2006, published 2009)
# Assay: Total anti-collagen IgG ELISA in CIA mice
# Type: in vivo, mouse
# Conditions: end of the therapy (day 15)
smiles,measurement,setting,value
"O=C(/C=C/c1cccnc1)NCCCCC1CCN(C(=O)c2ccccc2)CC1 [FK866, (E)-N-[4-(1-benzoylpiperidin-4-yl)butyl]-3-(pyridine-3-yl)-acrylamide]",difference in anti-collagen IgG levels between control and FK866-treated mice,,No significant difference
same,total anti-collagen IgG levels,treated mice n=15,106.5+/−17.6 arbitrary units
